Data as given in the supplement of paper PMC7661543.
± gives the standard deviation of the averaged measurements. The effect of the compound repeats well; differences between the knockouts mostly do not.

Test system: MDA-MB-231
Assay: relative cell number vs DMSO control (72 h) (% of DMSO); higher = less growth inhibition (more cells)
Method: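 QMAP-Seq: a pool of 5 breast cancer cell lines (ZR-75-1, SKBR3, HCC-38, MDA-MB-231, BT-20), each carrying 12 doxycycline-inducible Cas9 sgRNA perturbations (11 knockouts plus non-targeting sgNT), was treated with compounds for 72 h at four 10-fold doses (10 nM-10 uM or 1 nM-1 uM range). Barcodes were amplified and sequenced, and cell number was interpolated from 293T spike-in standard curves. The result is expressed as % of the median of DMSO wells. Two biological replicates.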

[1] = sgRNA knockout: sgATF3, 1000 nM
[2] = sgRNA knockout: sgATF3, 10000 nM
[3] = sgRNA knockout: sgATF4, 1000 nM
[4] = sgRNA knockout: sgATF4, 10000 nM
[5] = sgRNA knockout: sgATF6, 1000 nM
[6] = sgRNA knockout: sgATF6, 10000 nM
[7] = sgRNA knockout: sgATG7, 1000 nM
[8] = sgRNA knockout: sgATG7, 10000 nM
[9] = sgRNA knockout: sgERN1, 1000 nM
[10] = sgRNA knockout: sgERN1, 10000 nM
[11] = sgRNA knockout: sgHSF1, 1000 nM
[12] = sgRNA knockout: sgHSF1, 10000 nM
[13] = sgRNA knockout: sgHSF2, 1000 nM
[14] = sgRNA knockout: sgHSF2, 10000 nM
[15] = sgRNA knockout: sgKEAP1, 100 nM
[16] = sgRNA knockout: sgKEAP1, 1000 nM
[17] = sgRNA knockout: sgKEAP1, 10000 nM
[18] = sgRNA knockout: sgNFE2L2, 10 nM
[19] = sgRNA knockout: sgNFE2L2, 100 nM
[20] = sgRNA knockout: sgNFE2L2, 1000 nM
[21] = sgRNA knockout: sgNFE2L2, 10000 nM
[22] = sgRNA knockout: sgSLC35F2, 10 nM
[23] = sgRNA knockout: sgSLC35F2, 100 nM
[24] = sgRNA knockout: sgSLC35F2, 1000 nM
[25] = sgRNA knockout: sgSLC35F2, 10000 nM
[26] = sgRNA knockout: sgXBP1, 1000 nM
[27] = sgRNA knockout: sgXBP1, 10000 nM

## COc1ccc(-c2ccc3c(N4CCOCC4)nc(N4C[C@@H](C)O[C@@H](C)C4)nc3n2)cc1CO
sgRNA knockout: sgATF3, 10 nM
  relative cell number: 113 ± 24
sgRNA knockout: sgATF3, 100 nM
  relative cell number: 112 ± 32
[1]
  relative cell number: 107 ± 6.3
[2]
  relative cell number: 51.1 ± 8.2
sgRNA knockout: sgATF4, 10 nM
  relative cell number: 93.3 ± 13
sgRNA knockout: sgATF4, 100 nM
  relative cell number: 166 ± 73
[3]
  relative cell number: 124 ± 51
[4]
  relative cell number: 52.4 ± 1.3
sgRNA knockout: sgATF6, 10 nM
  relative cell number: 97.7 ± 22
sgRNA knockout: sgATF6, 100 nM
  relative cell number: 98 ± 15
[5]
  relative cell number: 80.8 ± 13
[6]
  relative cell number: 52.8 ± 1.8
sgRNA knockout: sgATG7, 10 nM
  relative cell number: 100 ± 26
sgRNA knockout: sgATG7, 100 nM
  relative cell number: 115 ± 1.4
[7]
  relative cell number: 109 ± 48
[8]
  relative cell number: 67.4 ± 3.2
sgRNA knockout: sgERN1, 10 nM
  relative cell number: 92.1 ± 14
sgRNA knockout: sgERN1, 100 nM
  relative cell number: 127 ± 20
[9]
  relative cell number: 99.4 ± 42
[10]
  relative cell number: 56.4 ± 10
sgRNA knockout: sgHSF1, 10 nM
  relative cell number: 100 ± 34
sgRNA knockout: sgHSF1, 100 nM
  relative cell number: 142 ± 6.3
[11]
  relative cell number: 95.4 ± 32
[12]
  relative cell number: 67.2 ± 12
sgRNA knockout: sgHSF2, 10 nM
  relative cell number: 92 ± 20
sgRNA knockout: sgHSF2, 100 nM
  relative cell number: 137 ± 8.6
[13]
  relative cell number: 112 ± 47
[14]
  relative cell number: 58.5 ± 9.4
sgRNA knockout: sgKEAP1, 10 nM
  relative cell number: 89.7 ± 15
[15]
  relative cell number: 117 ± 13
[16]
  relative cell number: 87.5 ± 18
[17]
  relative cell number: 57.1 ± 3.9
[18]
  relative cell number: 108 ± 1.8
[19]
  relative cell number: 138 ± 10
[20]
  relative cell number: 101 ± 7.9
[21]
  relative cell number: 50.3 ± 5
[22]
  relative cell number: 72.5 ± 14
[23]
  relative cell number: 136 ± 4.8
[24]
  relative cell number: 76.2 ± 8.5
[25]
  relative cell number: 51.9 ± 22
sgRNA knockout: sgXBP1, 10 nM
  relative cell number: 74.9 ± 9
sgRNA knockout: sgXBP1, 100 nM
  relative cell number: 129 ± 17
[26]
  relative cell number: 104 ± 28
[27]
  relative cell number: 68.5 ± 5.1

## C[C@@H](Oc1cc(-n2cnc3ccc(CN4CCN(C)CC4)cc32)sc1C(N)=O)c1ccccc1C(F)(F)F
sgRNA knockout: sgATF3, 10 nM
  relative cell number: 46.3 ± 4.7
sgRNA knockout: sgATF3, 100 nM
  relative cell number: 13.8 ± 4.5
[1]
  relative cell number: 9.07 ± 3
[2]
  relative cell number: 9.43 ± 1.6
sgRNA knockout: sgATF4, 10 nM
  relative cell number: 42.4 ± 17
sgRNA knockout: sgATF4, 100 nM
  relative cell number: 12.6 ± 6.5
[3]
  relative cell number: 15 ± 9.4
[4]
  relative cell number: 12.9 ± 0.15
sgRNA knockout: sgATF6, 10 nM
  relative cell number: 43.5 ± 3.1
sgRNA knockout: sgATF6, 100 nM
  relative cell number: 20 ± 5
[5]
  relative cell number: 11.9 ± 6.6
[6]
  relative cell number: 9.22 ± 2.5
sgRNA knockout: sgATG7, 10 nM
  relative cell number: 35.2 ± 4.9
sgRNA knockout: sgATG7, 100 nM
  relative cell number: 12.7 ± 2.2
[7]
  relative cell number: 11.7 ± 1.3
[8]
  relative cell number: 11.8 ± 3.4
sgRNA knockout: sgERN1, 10 nM
  relative cell number: 44.2 ± 1.2
sgRNA knockout: sgERN1, 100 nM
  relative cell number: 11.1 ± 0.23
[9]
  relative cell number: 8.85 ± 1.9
[10]
  relative cell number: 16 ± 12
sgRNA knockout: sgHSF1, 10 nM
  relative cell number: 34.974 ± 0.0042
sgRNA knockout: sgHSF1, 100 nM
  relative cell number: 12.2 ± 4.1
[11]
  relative cell number: 14.7 ± 5.7
[12]
  relative cell number: 7.95 ± 3.4
sgRNA knockout: sgHSF2, 10 nM
  relative cell number: 42.8 ± 4.9
sgRNA knockout: sgHSF2, 100 nM
  relative cell number: 13 ± 3.7
[13]
  relative cell number: 14.8 ± 8.5
[14]
  relative cell number: 12.9 ± 4.1
sgRNA knockout: sgKEAP1, 10 nM
  relative cell number: 40.5 ± 4.8
[15]
  relative cell number: 17.6 ± 1
[16]
  relative cell number: 11.9 ± 2
[17]
  relative cell number: 13.1 ± 2.6
[18]
  relative cell number: 43.8 ± 5.5
[19]
  relative cell number: 12.2 ± 3.1
[20]
  relative cell number: 11.3 ± 6
[21]
  relative cell number: 10.2 ± 0.3
[22]
  relative cell number: 40.6 ± 1.4
[23]
  relative cell number: 18.6 ± 2.6
[24]
  relative cell number: 9.95 ± 6.2
[25]
  relative cell number: 6.37 ± 1.9
sgRNA knockout: sgXBP1, 10 nM
  relative cell number: 35.7 ± 6.8
sgRNA knockout: sgXBP1, 100 nM
  relative cell number: 18.5 ± 3.7
[26]
  relative cell number: 14.2 ± 0.86
[27]
  relative cell number: 10.7 ± 0.26

## C[C@@]1(C(=O)Nc2ccc(F)nc2)CCCN1c1nc(Nc2cc(C3CC3)n[nH]2)c2cccn2n1
sgRNA knockout: sgATF3, 10 nM
  relative cell number: 103 ± 12
sgRNA knockout: sgATF3, 100 nM
  relative cell number: 82.4 ± 14
[1]
  relative cell number: 61.1 ± 1.3
[2]
  relative cell number: 25.9 ± 2.2
sgRNA knockout: sgATF4, 10 nM
  relative cell number: 93.1 ± 17
sgRNA knockout: sgATF4, 100 nM
  relative cell number: 75.6 ± 36
[3]
  relative cell number: 51.6 ± 4.7
[4]
  relative cell number: 41 ± 21
sgRNA knockout: sgATF6, 10 nM
  relative cell number: 119 ± 39
sgRNA knockout: sgATF6, 100 nM
  relative cell number: 76.1 ± 1.6
[5]
  relative cell number: 54.2 ± 7
[6]
  relative cell number: 25.8 ± 11
sgRNA knockout: sgATG7, 10 nM
  relative cell number: 87.5 ± 23
sgRNA knockout: sgATG7, 100 nM
  relative cell number: 77.5 ± 20
[7]
  relative cell number: 57.2 ± 7.8
[8]
  relative cell number: 25.6 ± 8.8
sgRNA knockout: sgERN1, 10 nM
  relative cell number: 78.3 ± 9.9
sgRNA knockout: sgERN1, 100 nM
  relative cell number: 68.9 ± 5
[9]
  relative cell number: 65.8 ± 8
[10]
  relative cell number: 29.5 ± 0.57
sgRNA knockout: sgHSF1, 10 nM
  relative cell number: 83.4 ± 20
sgRNA knockout: sgHSF1, 100 nM
  relative cell number: 71.1 ± 14
[11]
  relative cell number: 53.9 ± 15
[12]
  relative cell number: 38.1 ± 6.3
sgRNA knockout: sgHSF2, 10 nM
  relative cell number: 84.2 ± 27
sgRNA knockout: sgHSF2, 100 nM
  relative cell number: 73.1 ± 18
[13]
  relative cell number: 59.7 ± 4
[14]
  relative cell number: 27.8 ± 2.4
sgRNA knockout: sgKEAP1, 10 nM
  relative cell number: 102 ± 12
[15]
  relative cell number: 75.4 ± 26
[16]
  relative cell number: 63.4 ± 1.7
[17]
  relative cell number: 32.3 ± 6.5
[18]
  relative cell number: 79.3 ± 3.2
[19]
  relative cell number: 90.5 ± 9.4
[20]
  relative cell number: 61.2 ± 13
[21]
  relative cell number: 27.1 ± 6.2
[22]
  relative cell number: 92 ± 32
[23]
  relative cell number: 61.7 ± 16
[24]
  relative cell number: 73 ± 29
[25]
  relative cell number: 25.3 ± 7.2
sgRNA knockout: sgXBP1, 10 nM
  relative cell number: 103 ± 15
sgRNA knockout: sgXBP1, 100 nM
  relative cell number: 93.5 ± 15
[26]
  relative cell number: 58.4 ± 16
[27]
  relative cell number: 31.1 ± 1.5
